## Library screen at single concentrations

Sequences of proteins named here, by UniProt entry; tags and fusion partners are left off. Residues count along the entry.
UniProt P9WFT3, whole entry: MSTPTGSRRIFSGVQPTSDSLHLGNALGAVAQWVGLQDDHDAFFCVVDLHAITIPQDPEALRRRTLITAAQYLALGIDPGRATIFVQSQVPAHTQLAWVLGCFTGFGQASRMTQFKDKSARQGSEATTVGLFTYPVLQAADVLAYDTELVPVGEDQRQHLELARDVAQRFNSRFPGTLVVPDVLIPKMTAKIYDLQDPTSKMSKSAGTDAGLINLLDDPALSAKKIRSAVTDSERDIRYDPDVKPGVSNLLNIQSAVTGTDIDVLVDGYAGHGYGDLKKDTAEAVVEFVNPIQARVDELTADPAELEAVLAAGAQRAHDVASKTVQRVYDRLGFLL
UniProt P9WPC5, whole entry: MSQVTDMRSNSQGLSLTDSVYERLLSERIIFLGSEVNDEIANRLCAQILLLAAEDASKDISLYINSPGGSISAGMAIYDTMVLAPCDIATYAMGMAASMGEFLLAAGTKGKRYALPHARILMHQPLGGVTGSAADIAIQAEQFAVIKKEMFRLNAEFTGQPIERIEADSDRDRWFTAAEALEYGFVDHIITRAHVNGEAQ
UniProt P9WPC3, whole entry partner: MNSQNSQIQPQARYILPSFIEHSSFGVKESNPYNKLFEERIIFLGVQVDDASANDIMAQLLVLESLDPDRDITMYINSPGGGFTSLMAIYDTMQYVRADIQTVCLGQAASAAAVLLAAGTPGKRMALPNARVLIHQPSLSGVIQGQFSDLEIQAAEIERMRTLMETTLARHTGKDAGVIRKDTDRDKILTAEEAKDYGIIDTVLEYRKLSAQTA
UniProt Q4DA54, 1-478: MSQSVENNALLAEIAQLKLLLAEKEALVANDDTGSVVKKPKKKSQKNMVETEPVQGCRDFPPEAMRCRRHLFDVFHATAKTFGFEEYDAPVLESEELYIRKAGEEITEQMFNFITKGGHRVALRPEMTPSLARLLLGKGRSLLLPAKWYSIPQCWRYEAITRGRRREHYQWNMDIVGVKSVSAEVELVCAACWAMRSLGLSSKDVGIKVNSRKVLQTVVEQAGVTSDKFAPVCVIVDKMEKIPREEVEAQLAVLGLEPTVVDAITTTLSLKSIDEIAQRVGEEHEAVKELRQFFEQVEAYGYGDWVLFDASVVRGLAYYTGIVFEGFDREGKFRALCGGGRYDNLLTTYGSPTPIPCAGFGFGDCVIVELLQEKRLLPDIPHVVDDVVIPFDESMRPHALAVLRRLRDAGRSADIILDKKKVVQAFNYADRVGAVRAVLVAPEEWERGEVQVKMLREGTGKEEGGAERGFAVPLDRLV

From ChEMBL document CHEMBL3988442, “University of Dundee, Small-Polar-MMV Screening Library” (2021).

A: 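Tryptophan-tRNA ligase, Mycobacterium tuberculosis (UniProt P9WFT3). Enzyme assay of tryptophanyl-tRNA synthetase; the read-out is not stated. Compounds at 10 µM. Direction is not recorded; retested compounds ran higher, which suggests that high means inhibition. About 65,000 compounds were tested under these conditions; 0.098% (about 64) showed 50% or more at least once.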
B: 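ClpP1P2, Mycobacterium tuberculosis (UniProt P9WPC5 and UniProt P9WPC3). Protease assay of ClpP1P2, read by the AMC dye that it sets free. Concentration: 50 µM. Higher reads as stronger inhibition, judged from the few compounds that gave an IC50. Most other retested compounds had strongly negative values. About 69,000 compounds were tested under these conditions; 0.015% (about 10) showed 50% or more at least once.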
C: 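Enzyme assay of histidyl-tRNA synthetase; the read-out is not stated. Target: Histidine-tRNA ligase, Trypanosoma cruzi CL Brener (UniProt Q4DA54). Compounds at 30 µM. Higher reads as stronger inhibition (inferred: compounds with an IC50 in retests scored well above the rest). Of about 69,000 compounds tested this way, about 31 (0.045%) reached 50% or more in at least one test.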

Values are the deposited “Percent Effect”, in %. The record does not define 0% and 100%; most values in the screen are far below 50% and negative numbers occur (in some assays of this library far below -100). This is an unselected part of the compounds tested. A dash means the value is not listed here; it may have been measured.

compound	A	B	C
CC(C(=O)N1CCC(Nc2cccnn2)CC1)n1ccnc1 (stereo unspecified)	-6.651%	6.533%	0%
Cc1cnc2c(S(=O)(=O)NC3CCS(=O)(=O)C3)cccc2c1 (stereo unspecified)	-2.18%	2.378%	4.046%
CC(C)COCC(NC(=O)c1ccncc1)c1ccco1 (stereo unspecified)	2.119%	-32.67%	1.453%
CN1CCN(CC2CC2)C(=O)C12CCN(C(=O)CC(F)(F)F)CC2	-	1.785%	5.028%
CC(C)Cc1cc(C(=O)N2CCCN(c3ncccn3)CC2)[nH]n1	5.936%	-3.898%	11.39%
Cc1ccc(-c2nc(CN3CCOC(Cn4cccn4)C3)no2)cc1 (stereo unspecified)	-1.605%	-12.74%	5.714%
c1ccc(C(CNc2ncccn2)N2CCOCC2)nc1 (stereo unspecified)	-5.098%	-8.119%	6.897%
CN1CCOC(CNC(=O)CCCc2ccccc2)C1 (stereo unspecified)	-2.556%	-3.898%	7.182%
CC(=O)N(C)[C@H]1CC[C@]2(CC1)CNC(=O)c1cc(C)ccc1O2	-	-6.674%	4.494%
CC(=O)c1cnc(NCC2OCCc3ccccc32)nc1C (stereo unspecified)	3.488%	10.19%	0%
CCc1nnc2n1CCN(C(=O)C(C)Oc1cccc(C#N)c1)C2 (stereo unspecified)	-0.07127%	-11.46%	-2.609%
CN(C)C(=O)CN1CCN(c2cc(N3CCCC3CO)ncn2)CC1 (stereo unspecified)	2.761%	2.489%	4.972%
Cc1ccccc1C(CNc1ncnc2c1CCNC2)N(C)C (stereo unspecified)	4.258%	-43.85%	22.22%
O=C(NCc1cccnc1-n1cncn1)C1CC2(CCNCC2)CN1 (stereo unspecified)	-2.738%	-21.18%	8.8%
O=C(CSc1ccncc1)N1CCC2(CC1)c1ccccc1CC2O (stereo unspecified)	-2.826%	-2%	2.513%
CO[C@@]1(C)C[C@@H](O)C12CCN(C(=O)c1ccccc1C(C)=O)CC2	4.187%	-8.393%	8.8%
COCCN1CCN(Cc2cccc(C(=O)N(C)C)c2)CC1	3.754%	-21.96%	7.91%
COCCn1ccnc1C1CCCN(C(=O)c2ccccc2C#N)C1 (stereo unspecified)	-3.614%	-14.76%	5.941%
CC(C)c1nc2c(n1C)CCN(Cc1nc(-c3cccs3)no1)C2	-3.596%	-0.2626%	5.747%
O=C(Cc1ccncc1)N1CCC2(CC1)CC(c1ccccc1)CO2 (stereo unspecified)	-	-14.26%	12.56%
Cc1cc(C)c(-c2nc(-c3c(C)ncc4c3CCNC4)no2)o1	0.1236%	-19.96%	-1.212%
CSCC(C)NCc1ccc2[nH]c(C)c(C)c2c1 (stereo unspecified)	-2.346%	-9.827%	3.571%
c1ccc(OCCCN2CCOC(CNc3cccnn3)C2)cc1 (stereo unspecified)	-4.061%	-13.23%	4.571%
Cc1nnc(C(C)N2CCN(Cc3ccc(C(F)(F)F)cc3)CC2)o1 (stereo unspecified)	-6.361%	-9.215%	4.651%
Cc1nn(C)c(C)c1NC(=O)CN1CCc2c(nc(C(C)C)n2C)C1	-4.102%	-7.872%	-0.8333%
CC(C)N(C)[C@@H]1CCN(c2ncccn2)[C@H]1Cc1ccncc1	-0.6506%	0.7166%	5.473%
CCN1CCc2nc(N3CCOCC3)nc(NC(C)C)c2C1	-1.289%	-9.873%	0%
COc1ccc(C)cc1CCNS(=O)(=O)c1ccc2c(c1)CCC(=O)N2	0.7947%	0.547%	3.012%
CN(C)c1nccnc1N1CC[C@@]2(O)CCNC[C@H]2C1	16.57%	16.71%	4.103%
CNC(=O)c1ccccc1-c1ccc(S(C)(=O)=O)cc1	-	-9.36%	4.545%
COC(=O)Nc1nc2c(s1)CN(C(=O)NCc1cccs1)CC2	5.75%	-8.329%	6.736%
Cn1cc(NC(=O)c2ccccn2)cc(Br)c1=O	2.142%	-3.538%	30.9%
Cc1cnnn1Cc1nnn2c1CN(Cc1cccs1)CCC2	1.058%	-1.911%	4.813%
Cc1ccc(N2CC[C@H]3O[C@@H](C(=O)NCc4ccco4)CC[C@H]32)nn1	-2.78%	9.014%	15.85%
CCOCCCNC(=O)N(C)Cc1ccc(SC)c(OC)c1	-2.22%	9.252%	4.348%
COC(=O)c1cccc(C(=O)N2CCN(c3ccc(OC)cc3)CC2)n1	2.348%	2.97%	4.523%
O=C(Cc1c[nH]c2ncccc12)NCC(O)c1ccccc1F (stereo unspecified)	-0.571%	-0.3929%	3.093%
Cc1ncc(CN2CCc3c(nc4cc(C5CC5)nn4c3O)C2)n1C	2.894%	-33.27%	-0.7752%
COc1nn(C)cc1-c1nnc(SCc2cccnc2)n1C	2.75%	1.625%	5.699%
CCC(=O)N1C[C@@H](C(=O)NC)[C@H](c2ccnc(N3CCCC3)n2)C1	-7.794%	-42.4%	7.714%
CC(CC(=O)NCCCn1cccn1)c1cccnc1 (stereo unspecified)	4.996%	-2.149%	6.667%
CC(C)c1nc(CNC2CCN(C(=O)OC(C)(C)C)CC2)cs1	3.84%	3.44%	3.077%
CCN(Cc1cccc2c1OCO2)C(=O)Nc1ccncc1	-1.394%	-0.7644%	5.703%
COCCN1CCN(c2ccc(C)nn2)Cc2ccc(C)nc21	-	-2.062%	7.538%
CCC(CC)c1cc(CNC(=O)N2CCC(CO)CC2)on1	-1.847%	-7.788%	2.326%
CNc1cc(C(=O)N2CCOC(C(=O)NC3CCCC3)C2)ccn1 (stereo unspecified)	-9.117%	-11.65%	0.7752%
CCc1cc(N(C)Cc2[nH]nc3c2CCC3)nc(N2CCOCC2)n1	-4.329%	-3.444%	3.448%
CS(=O)(=O)NCc1cc(-c2cc(F)cc(F)c2)nc(N2CCOCC2)n1	-	-4.988%	6.78%
CCCn1nc(C)c2c1NC(=O)CC2c1ccc(CN2CCCC2)s1 (stereo unspecified)	-4.527%	-2.808%	7.853%
CN(C)C(=O)CN1CCCC1c1cccc(Cc2ccccc2F)n1 (stereo unspecified)	-	3.421%	42.22%
CCOC1CC2(CCN(Cc3cccn3C)CC2)C1	-3.024%	-19.17%	6.557%
CN(CC(=O)N1CCCC1)C(=O)Cc1csc(-c2ncccn2)n1	-5.085%	-18.99%	5.325%
COc1cccc(S(=O)(=O)NC2CNC(=O)C2)c1 (stereo unspecified)	1.782%	2.298%	1.653%
CCc1nc(C)c(CNC(=O)CCCN2CCCCC2)s1	-0.2981%	-6.141%	8.743%
Cc1ncc(C(=O)N2CCCN(Cc3ccccc3F)CC2)c(O)n1	2.157%	-12.78%	-2.41%
CN(C)c1ncc(CN2CCCC(Nc3ccc4c(c3)OCCO4)C2)s1 (stereo unspecified)	3.541%	-1.985%	-5.155%
COc1ccc(CN2Cc3cnn(C)c3C(COCC3CC3)C2)cc1 (stereo unspecified)	2.948%	6.673%	2.151%
COCC1CC2(CCN(Cc3nc(C)cs3)CC2)CO1 (stereo unspecified)	-	-7.94%	-1.508%
CNS(=O)(=O)CC(=O)N(Cc1c(F)cccc1F)C1CCCC1	-3.122%	-3.097%	4.545%
COCc1ccccc1C(=O)NCC(O)c1ccccc1F (stereo unspecified)	1.784%	2.416%	4.865%
Cc1nc(N2CCC(CN3CCCC3)CC2)c2cnn(C)c2n1	-3.614%	-8.94%	-0.4425%
CO[C@@H]1CC[C@H]2[C@H]1OCCN2C(=O)COc1ccc(F)cc1	3.226%	-3.857%	0.5525%
Cn1nnc2c1CCN(S(C)(=O)=O)C2COCc1ccccc1 (stereo unspecified)	1.744%	0.1985%	3.061%
CCc1nc(C2CCCN2CC(=O)Nc2nnc(C)s2)no1 (stereo unspecified)	-4.674%	-12.76%	1.724%
O=C(COCc1ccccc1)N1CCN(Cc2ccccc2F)C(=O)C1	-1.308%	3.663%	7.853%
COCC(NC1CSCCSC1)c1ccnn1C (stereo unspecified)	5.595%	5.277%	12.31%
CCOc1nn(CC)cc1-c1nnc(SCc2cccnc2)n1C	2.917%	5.9%	10.88%

Some entries from above, unchanged:

{"compound": "CC(C(=O)N1CCC(Nc2cccnn2)CC1)n1ccnc1", "stereo": "stereo unspecified", "A": -6.651, "B": 6.533, "C": 0}
{"compound": "O=C(Cc1ccncc1)N1CCC2(CC1)CC(c1ccccc1)CO2", "stereo": "stereo unspecified", "B": -14.26, "C": 12.56}
{"compound": "c1ccc(C(CNc2ncccn2)N2CCOCC2)nc1", "stereo": "stereo unspecified", "A": -5.098, "B": -8.119, "C": 6.897}
{"compound": "CN(CC(=O)N1CCCC1)C(=O)Cc1csc(-c2ncccn2)n1", "A": -5.085, "B": -18.99, "C": 5.325}
{"compound": "Cn1cc(NC(=O)c2ccccn2)cc(Br)c1=O", "A": 2.142, "B": -3.538, "C": 30.9}
{"compound": "CCc1nnc2n1CCN(C(=O)C(C)Oc1cccc(C#N)c1)C2", "stereo": "stereo unspecified", "A": -0.07127, "B": -11.46, "C": -2.609}